# Over roughly 33,000 sequences, “E-score (-0.5 to 0.5)” has its median near -0.016; the highest 2% begin near 0.3. Some of the results follow.
# Biological target: T1, Yer184c (UniProt P39961)
# T1 sequence: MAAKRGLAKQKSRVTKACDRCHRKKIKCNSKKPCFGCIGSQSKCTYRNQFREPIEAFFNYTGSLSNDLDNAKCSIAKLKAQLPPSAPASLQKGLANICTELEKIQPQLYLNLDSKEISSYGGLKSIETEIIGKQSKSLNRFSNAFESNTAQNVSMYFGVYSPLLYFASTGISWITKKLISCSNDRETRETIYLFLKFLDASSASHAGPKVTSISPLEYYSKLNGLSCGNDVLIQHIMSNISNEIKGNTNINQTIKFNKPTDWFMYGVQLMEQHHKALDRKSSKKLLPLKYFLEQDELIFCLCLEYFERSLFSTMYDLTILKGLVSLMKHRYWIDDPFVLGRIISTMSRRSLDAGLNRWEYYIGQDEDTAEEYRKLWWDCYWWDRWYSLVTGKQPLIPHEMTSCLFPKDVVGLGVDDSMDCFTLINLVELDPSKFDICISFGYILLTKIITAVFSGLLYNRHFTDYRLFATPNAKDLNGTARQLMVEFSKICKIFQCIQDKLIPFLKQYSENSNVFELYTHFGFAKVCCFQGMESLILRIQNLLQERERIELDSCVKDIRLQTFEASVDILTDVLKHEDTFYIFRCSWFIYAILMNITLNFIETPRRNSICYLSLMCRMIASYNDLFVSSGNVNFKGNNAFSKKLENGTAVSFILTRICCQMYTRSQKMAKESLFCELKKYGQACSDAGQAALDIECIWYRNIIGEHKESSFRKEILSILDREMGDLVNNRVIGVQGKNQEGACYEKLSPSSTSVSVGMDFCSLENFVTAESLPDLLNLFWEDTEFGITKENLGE
# Assay: PBM E-score (8-mer binding enrichment) (E-score (-0.5 to 0.5)); higher = stronger / more preferred TF binding
# Settings: protein concentration: 100 nM; construct: GST-full length
# How it was run: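 Detection of bound protein used fluorescent anti-GST, with scans normalised by masliner. The proteins were GST-tagged yeast transcription factors applied at about 100-200 nM to universal all-10-mer Agilent arrays made double-stranded by primer extension. Each ungapped eight-base word, pooled with its reverse complement, was scored with an E-score from the Universal PBM Analysis Suite.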
row,Sequence,PBM E-score
1,CCATGAAC,0.102
2,AGAACGGC,0.176
3,ACTGGCTC,-0.156
4,AATCAACG,0.214
5,CAGGTGCG,-0.13
6,AGTCGTGC,-0.271
7,AGGTCCCC,-0.211
8,AGTTGCAC,-0.0844
9,ATGTTAGC,0.0216
10,TAGTTAGA,0.16
11,ACTCAATC,-0.00019
12,CCAAATCC,-0.0224
13,ACATTTCC,0.17
14,GCGAGGGA,-0.174
15,ACATGTTG,0.145
16,GATTCAGC,0.0121
17,CAATAATG,-0.0559
18,TGAAGAAA,0.217
19,GAAGACAA,0.0584
20,TCCTATAA,-0.102
21,GCCTAGAA,0.00564
22,CTATCCGA,0.119
23,CAGACTGG,-0.205
24,CCACATCC,-0.129
25,GGTTGTAC,0.157

row,Sequence,PBM E-score
1,CAAAAATA,0.288
2,ATGAACGC,0.0172
3,GTCGAAAC,-0.0402
4,ATAGCGTC,-0.147
5,GCCACGCC,-0.243
6,CACTTCGA,-0.0274
7,CTACAGGC,-0.236
8,TCTTCCAA,0.0697
9,TAGCCACA,0.0103
10,GACGAGGC,-0.177
11,AACACCTT,0.0552
12,AGTAGACT,-0.0389
13,GAATACTA,0.149
14,ATAGGTTA,-0.0713
15,GACGTTCC,-0.0502
16,TGGGGAAA,-0.0527
17,CGGTCCTA,-0.0474
18,ACATTGCT,-0.0573
19,AATTCTAA,0.0614
20,CTTGTTGA,0.0735
21,AAACATCG,-0.0791
22,CCTAAATC,0.057
23,CATAAAAA,0.252
24,GGATTCAA,-0.0823
25,CAGCATAA,0.0665

# Reformatted: entries from further up
row	Sequence	PBM E-score
23	CATAAAAA	0.252
24	GGATTCAA	-0.0823

# Additional records.

row,Sequence,PBM E-score
1,GCCCATCC,-0.224
2,AATCGGCT,0.349
3,AGTATTCG,0.0724
4,CAGGGCAG,-0.102
5,CAAAGTTC,0.0248
6,CTTATTAA,0.15
7,TACTAACA,0.0854
8,CGGCGGCC,0.0437
9,CATTGTGC,-0.124
10,CGTGCGGA,-0.0118
11,CAGGAGAA,0.0983
12,AATCCGTG,0.0809
13,GGTACACA,-0.06
14,CACAGATG,-0.0682
15,CTAGGTTC,-0.014
16,ACACCGCG,-0.0537
17,GAACCGGC,0.18
18,CCTTATCA,0.0526
19,CCTGTGAG,-0.173
20,ACATTCTC,-0.0031
21,ACCCAGAC,-0.0093
22,GCGTTACA,-0.0168
23,ATCTGTGG,-0.228
24,GCAGCAGA,0.0819
25,GTTTTCTA,0.207

row,Sequence,PBM E-score
1,ATAATCCG,0.23
2,GCCCTGTA,-0.139
3,AGTACTTC,0.147
4,GAAAAAGA,0.206
5,GCAAAAAA,0.229
6,ATTCCGGA,0.436
7,TATAATGA,0.219
8,CAGGAATC,-0.0432
9,AGAACCAG,-0.102
10,CGCACCAG,0.0914
11,GGTTCAAA,0.231
12,ATTAAGTG,0.107
13,CGTATCCC,-0.137
14,GCGCGGGA,0.0199
15,GCGCCACC,-0.26
16,ATTTCATC,0.127
17,CAGACGCC,-0.161
18,CCGCCCAA,-0.125
19,AGGCGAAG,-0.131
20,ATTTGCAG,0.0815
21,GCGTTCCA,0.0604
22,CAACGCTC,-0.182
23,CAGAGGAG,-0.212
24,CCTTGGCC,-0.324
25,GCATATTA,0.076

row,Sequence,PBM E-score
1,GCGTTTCC,0.0119
2,AGTCGTAG,-0.09
3,TACAGGAA,0.181
4,CTACCTTA,-0.122
5,ATGATTCG,0.0269
6,GAGTTCTA,-0.0729
7,AGCGTGAT,0.0161
8,GTACGTCA,-0.276
9,CCTTTCAC,-0.0144
10,ATTGGCCG,0.143
11,ACATTCCT,-0.139
12,AAGAACCG,0.223
13,CATCTCTA,-0.0291
14,GCGGTTCA,-0.0177
15,GCAACCTA,-0.123
16,GACCGCAA,0.0311
17,AGCCGAAC,0.279
18,CCCCCAAG,-0.226
19,CCAGCACG,-0.132
20,GCCAAAAA,0.234
21,ATAAACAC,0.0583
22,CGCCGATC,0.129
23,TGGGACAA,-0.139
24,ACGAACAG,0.044
25,AACTACAT,0.0324

row,Sequence,PBM E-score
1,CCTCCAGG,-0.37
2,ACTTCTAT,-0.0344
3,CACAAACC,-0.15
4,ATGCACGA,-0.192
5,CTCAGGAC,-0.0106
6,ACATGGAG,-0.287
7,GAGCTCCA,-0.133
8,ATAATTAA,0.323
9,AGCATCAC,-0.207
10,ACAAGTGT,-0.092
11,AGCAGGGC,-0.269
12,ACGATCTG,-0.225
13,GCACCGCC,-0.183
14,GCATGAAA,0.0975
15,CGCCCTGA,-0.0305
16,CTGGTATC,0.00658
17,AAGACATT,-0.147
18,GATCGGTA,0.283
19,CCTTGGAA,0.00859
20,GTGGCGGA,-0.15
21,AGGATACA,-0.0342
22,AAACTCTT,-0.111
23,CTAGTGCC,-0.019
24,GACAAGGA,-0.0111
25,AGAAATCC,0.0506

row,Sequence,PBM E-score
1,AGGGATTA,-0.104
2,AATCCGTC,0.177
3,GAACGGGA,0.109
4,ACCCAAGC,-0.186
5,CGAAGAAG,0.159
6,CCTGAGCA,0.0403
7,ACTACCAC,-0.14
8,ACTACCTG,-0.124
9,AGTCTCAA,-0.165
10,GAGTGGCA,-0.153
11,GTACACAC,-0.0358
12,CAGCCACG,-0.029
13,ACAAGGCA,-0.0983
14,TGACTAAA,0.0586
15,CTAAATAC,-0.0252
16,CTTGATGA,0.154
17,TGGGCCCA,-0.172
18,TAACCAAA,0.00703
19,AAAAGGCT,-0.059
20,CCGACATA,0.0406
21,ACTAGGTA,0.074
22,ATTGAGAA,0.147

# 4 records drawn at random from the list so far:
row,Sequence,PBM E-score
1,AGGGATTA,-0.104
22,ATTGAGAA,0.147
21,ACTAGGTA,0.074
20,CCGACATA,0.0406

# Source: the supplement of paper PMC3334620
